Consider one substance from article PMC3137634.

The chains behind the UniProt entries cited, without tags or fusion partners. Where a name states a change or a piece, a line headed by the entry shows the natural chain unless it says otherwise. Residues count along the entry.
UniProt O60603: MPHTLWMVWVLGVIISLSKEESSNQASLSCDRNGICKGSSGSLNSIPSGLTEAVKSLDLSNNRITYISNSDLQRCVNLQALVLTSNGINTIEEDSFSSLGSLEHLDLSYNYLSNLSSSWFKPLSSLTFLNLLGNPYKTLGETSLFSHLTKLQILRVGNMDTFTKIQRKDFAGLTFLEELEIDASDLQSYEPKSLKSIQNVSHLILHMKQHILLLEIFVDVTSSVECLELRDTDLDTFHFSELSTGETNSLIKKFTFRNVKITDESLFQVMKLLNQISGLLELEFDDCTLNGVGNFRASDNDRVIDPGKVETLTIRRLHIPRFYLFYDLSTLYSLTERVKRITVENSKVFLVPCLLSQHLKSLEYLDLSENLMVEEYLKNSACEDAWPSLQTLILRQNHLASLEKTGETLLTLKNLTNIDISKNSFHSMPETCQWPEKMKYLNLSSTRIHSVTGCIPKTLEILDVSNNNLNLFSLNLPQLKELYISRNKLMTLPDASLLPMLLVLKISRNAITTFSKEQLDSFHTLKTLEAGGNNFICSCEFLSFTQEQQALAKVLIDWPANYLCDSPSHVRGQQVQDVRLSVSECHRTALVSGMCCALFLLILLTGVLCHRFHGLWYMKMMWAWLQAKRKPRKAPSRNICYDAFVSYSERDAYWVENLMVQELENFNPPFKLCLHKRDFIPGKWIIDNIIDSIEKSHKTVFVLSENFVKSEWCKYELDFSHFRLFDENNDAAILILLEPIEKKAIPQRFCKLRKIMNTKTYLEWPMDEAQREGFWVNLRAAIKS
UniProt O00206, residues 24-839: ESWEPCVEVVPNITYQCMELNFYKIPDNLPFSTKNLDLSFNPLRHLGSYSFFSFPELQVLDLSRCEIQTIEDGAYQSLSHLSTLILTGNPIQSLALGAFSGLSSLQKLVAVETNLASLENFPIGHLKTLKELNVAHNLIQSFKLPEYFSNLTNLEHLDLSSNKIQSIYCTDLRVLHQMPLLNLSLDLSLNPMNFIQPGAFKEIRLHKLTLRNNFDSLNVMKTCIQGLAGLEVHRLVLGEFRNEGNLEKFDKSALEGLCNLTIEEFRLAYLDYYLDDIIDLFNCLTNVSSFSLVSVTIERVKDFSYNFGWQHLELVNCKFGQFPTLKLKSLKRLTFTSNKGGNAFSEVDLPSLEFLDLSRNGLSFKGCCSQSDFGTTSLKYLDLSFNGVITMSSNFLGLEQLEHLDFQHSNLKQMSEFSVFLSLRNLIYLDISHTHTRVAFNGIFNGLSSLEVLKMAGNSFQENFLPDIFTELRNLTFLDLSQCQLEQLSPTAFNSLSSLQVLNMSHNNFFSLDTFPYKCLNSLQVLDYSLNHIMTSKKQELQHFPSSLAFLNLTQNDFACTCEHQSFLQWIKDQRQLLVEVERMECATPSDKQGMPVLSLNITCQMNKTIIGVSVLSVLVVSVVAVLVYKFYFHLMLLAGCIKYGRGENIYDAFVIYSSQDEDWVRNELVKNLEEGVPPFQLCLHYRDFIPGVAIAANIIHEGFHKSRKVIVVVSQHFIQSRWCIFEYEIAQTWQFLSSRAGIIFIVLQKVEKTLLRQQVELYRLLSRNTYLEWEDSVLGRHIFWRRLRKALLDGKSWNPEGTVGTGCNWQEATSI
UniProt O25636: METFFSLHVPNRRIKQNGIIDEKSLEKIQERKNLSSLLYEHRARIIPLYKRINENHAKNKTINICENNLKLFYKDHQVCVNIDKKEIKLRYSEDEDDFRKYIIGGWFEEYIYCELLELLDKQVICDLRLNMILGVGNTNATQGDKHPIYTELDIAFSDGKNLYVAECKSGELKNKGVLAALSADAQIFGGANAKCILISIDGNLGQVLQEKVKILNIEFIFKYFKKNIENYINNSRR

Results are given in words; binding and its absence hold for the method and conditions named.

For test [1], the target named is TLR2 (human (endogenous in Thp1)) (UniProt O60603). In words: flow cytometry on cells; Thp1 differentiated macrophages treated with rHP986 and stained with antibodies specific to TLR4, TLR2 and TNFR1; what is shown is the receptors' expression; only the binder purified.
Test [2] concerns the target TLR4 (human (endogenous in Thp1)) (UniProt O00206). The description is as above.

Turning to recombinant HP986 (from UniProt O25636), the binding result in test [1] and in test [2] was “no binding” in each case.
